Reference: article PMC9346556
These are yes or no findings as the source states them, for the method shown. In cells and extracts the contact can be indirect. Binding can be weak; no strength is given. Tags and fused reporters may be left off the sequences shown.

By UniProt entry, the sequences of proteins in these tests, tags left out. Where a name states a change or a piece, a line headed by the entry shows the natural chain unless it says otherwise.
UniProt P36874: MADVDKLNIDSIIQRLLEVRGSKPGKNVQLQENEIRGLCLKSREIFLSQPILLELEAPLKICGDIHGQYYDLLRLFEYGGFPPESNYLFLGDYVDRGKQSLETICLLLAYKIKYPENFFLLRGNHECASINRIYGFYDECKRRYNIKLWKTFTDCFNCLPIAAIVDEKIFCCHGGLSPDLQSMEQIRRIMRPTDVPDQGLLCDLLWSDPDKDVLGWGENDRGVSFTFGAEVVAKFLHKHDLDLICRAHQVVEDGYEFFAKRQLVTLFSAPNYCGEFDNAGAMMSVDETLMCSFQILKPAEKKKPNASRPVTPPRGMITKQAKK

Experiments:
[1] = molecular target: Xenopus PP1 catalytic subunit (XePP1c), endogenous in oocytes (Xenopus laevis (endogenous in oocytes)) (UniProt P36874); experiment: co-IP; Xenopus oocytes injected with PbLRR1 cRNA (60 ng), lysed after 15 h in buffer A (50 mM Hepes pH 7.4, 500 mM NaCl, 0.05% SDS); anti-PP1 mAb with protein A-sepharose, 4°C; blot with anti-HA and anti-PP1
[2] = molecular target: Xenopus PP1 catalytic subunit (XePP1c), endogenous in oocytes (Xenopus laevis (endogenous in oocytes)) (UniProt P36874); experiment: co-IP; Xenopus oocytes pre-injected with peptides (100 ng), control peptide P0 or PBS 1 h before PbLRR1 cRNA; extracts precipitated with anti-PP1 mAb (blot anti-HA) and with anti-HA (blot anti-PP1)

B1: PbLRR1 expressed in Xenopus oocytes from cRNA (PbLRR1-pGADT7 template), HA-tagged (protein, UniProt A0A509ALG1 1-310)
chain: MATYNVLGEITTFDENETIISHQYSRIRKIENIEKCKKLMTLQLISNCIEKIENLENNIELEHLELYENSIKRIENISMLINLKVLDLSFNKIKVIENLETLVNLEELYLSSNKISKIENLKNCKKLRLLELGYNKIRKIENIENLKNLEELWLGKNKIEHLELPELPKLKKLSLQHNRLTKWDEKSINNVLSLNELYLSYNKLNEINDQIKELKYLKVLDLAYNEIENILICSELKHLEELWLNNNNIKSLDMIVKLKNNENLKTLYLEKNEIQDNLKDTYRDQIISILPQIQQLDALLISPTNLLKKK
- binding [1]: binds
- binding [2]: binds
